Results taken from patent publication US4282244A, “Optical isomers of 4-amino-N-(1-cyclohexyl-3-pyrrolidinyl)-N-methylbenzamide” (A. H. Robins Company, Inc., priority 1980, dated 1981).
Where a name gives a salt, the structure may show the parent alone. The name of at least one read-out is uncertain.

Tested on: catalepsy
Assay: cataleptic effects (Tedeschi et al.)
Format: in vivo
Details: rat, IP; footnote c; expressed as free base
Excerpt: The procedure used for determing cataleptic effects of the fumarate salts was based on that of Tedeschi et al., Arch. Int. Pharmacodyn.

CN(C(=O)c1ccc(N)cc1)C1CCN(C2CCCCC2)C1 (single isomer, unassigned; (+)) [(+)-isomer, (+)-4-Amino-N-(1-cyclohexyl-3-pyrrolidinyl)-N-methyl benzamide Fumarate]
Neurotoxic dose level evidenced by seizures in test animals: 100 mg/kg
